Measurements reported in PubChem BioAssay AID1224830 (NIAID, 2016)
Screen: 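Host factors that control LPS-induced TNF expression in human macrophages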 (primary screen). Cell system: human THP-1 monocytic leukaemia cells, TNF dual-luciferase reporter clone, PMA-differentiated to macrophage-like cells. Knock-down reagent: siRNA pool against human genes, 50 nM. Duration: LPS for 4 h, given about 3 days after siRNA transfection. Challenge: bacterial LPS (TLR4 ligand), 10 ng/ml. Measurement: 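Ratio of firefly to renilla light, scaled to the plate median and expressed as a robust z-score per replicate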. Reading the numbers: TNF reporter robust z-score: higher = stronger TNF reporter response to LPS. Call rule: 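a well is active when its z-score exceeds 2.8 or falls below -1.5; control wells carry no call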.
The deposit covers about 18,000 reagents; below is a random part of them. About 2,900 of all reagents (16%) count as active. 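Calls are made per well; low scores hint the gene aids the LPS response, high scores that it dampens it.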 Repeated entries: four replicate wells of each siRNA pool.

| gene | TNF reporter robust z-score | call |
| --- | --- | --- |
| EIF2B4 | -0.39 | inactive |
| EIF2B4 | -0.76 | inactive |
| EIF2B4 | -0.42 | inactive |
| EIF2B4 | -0.79 | inactive |
| OR9A4 | -0.7 | inactive |
| OR9A4 | -0.38 | inactive |
| OR9A4 | -0.08 | inactive |
| OR9A4 | -0.15 | inactive |
| PKHD1L1 | -0.19 | inactive |
| PKHD1L1 | -0.47 | inactive |
| PKHD1L1 | 0.11 | inactive |
| PKHD1L1 | -0.51 | inactive |
| PACC1 | 0.52 | inactive |
| PACC1 | 0.96 | inactive |
| PACC1 | 0.04 | inactive |
| PACC1 | 0.4 | inactive |
| SPANXN2 | 0.96 | inactive |
| SPANXN2 | 1.23 | inactive |
| SPANXN2 | -0.01 | inactive |
| SPANXN2 | 0.55 | inactive |
| ZNF154 | -0.97 | inactive |
| ZNF154 | -0.88 | inactive |
| ZNF154 | 0.95 | inactive |
| ZNF154 | -0.45 | inactive |
| TTLL8 | 1.26 | inactive |
| TTLL8 | -0.05 | inactive |
| TTLL8 | -0.24 | inactive |
| TTLL8 | 1.96 | inactive |
| OR1M1 | 1.05 | inactive |
| OR1M1 | 0.85 | inactive |
| OR1M1 | 0.87 | inactive |
| OR1M1 | 1.24 | inactive |
| LIF | -0.27 | inactive |
| LIF | -0.12 | inactive |
| LIF | -0.68 | inactive |
| LIF | -0.17 | inactive |
| DEFB105B | -0.23 | inactive |
| DEFB105B | -0.57 | inactive |
| DEFB105B | -0.28 | inactive |
| DEFB105B | 0.12 | inactive |
| PCDHGA12 | 0 | inactive |
| PCDHGA12 | -0.48 | inactive |
| PCDHGA12 | -0.59 | inactive |
| PCDHGA12 | 2.31 | inactive |
| PORCN | -0.55 | inactive |
| PORCN | -0.48 | inactive |
| PORCN | -0.68 | inactive |
| PORCN | -0.19 | inactive |
| RWDD2A | 0.63 | inactive |
| RWDD2A | 0.04 | inactive |
| RWDD2A | -1.01 | inactive |
| RWDD2A | -0.17 | inactive |
| PTCD1 | -0.23 | inactive |
| PTCD1 | -0.43 | inactive |
| PTCD1 | -0.19 | inactive |
| PTCD1 | 0.49 | inactive |
| DUSP14 | 0.21 | inactive |
| DUSP14 | 0.69 | inactive |
| DUSP14 | -0.24 | inactive |
| DUSP14 | -0.04 | inactive |
| RABEPK | -0.17 | inactive |
| RABEPK | 1.07 | inactive |
| RABEPK | 1.13 | inactive |
| RABEPK | 2.01 | inactive |
| RAPGEF4 | -0.13 | inactive |
| RAPGEF4 | 0.22 | inactive |
| RAPGEF4 | 3.62 | active |
| RAPGEF4 | -0.32 | inactive |
| KPTN | -1.16 | inactive |
| KPTN | 0.66 | inactive |
| KPTN | -0.31 | inactive |
| KPTN | -0.22 | inactive |
| TFPT | 2.09 | inactive |
| TFPT | -0.24 | inactive |
| TFPT | -0.69 | inactive |
| TFPT | -0.4 | inactive |
| TCP1 | 2.87 | active |
| TCP1 | 0.4 | inactive |
| TCP1 | 2.43 | inactive |
| TCP1 | 3.18 | active |

Not a retest: entries from further up.
| gene | TNF reporter robust z-score | call |
| --- | --- | --- |
| ZNF154 | -0.97 | inactive |
| ZNF154 | -0.88 | inactive |
| ZNF154 | 0.95 | inactive |
| ZNF154 | -0.45 | inactive |
| TTLL8 | 1.26 | inactive |
| TTLL8 | -0.05 | inactive |
| TTLL8 | -0.24 | inactive |
| TTLL8 | 1.96 | inactive |
| OR1M1 | 1.05 | inactive |
| OR1M1 | 0.85 | inactive |

More records:
| gene | TNF reporter robust z-score | call |
| --- | --- | --- |
| WARS2 | 0.03 | inactive |
| WARS2 | -1.24 | inactive |
| WARS2 | 0.07 | inactive |
| WARS2 | -0.03 | inactive |
| EPHA5 | -1.89 | active |
| EPHA5 | -0.31 | inactive |
| EPHA5 | 0.26 | inactive |
| EPHA5 | -0.07 | inactive |
| RPRML | -0.91 | inactive |
| RPRML | -1.22 | inactive |
| RPRML | -0.71 | inactive |
| RPRML | 0 | inactive |
| FRMD1 | 0.57 | inactive |
| FRMD1 | 0.65 | inactive |
| FRMD1 | 0.17 | inactive |
| FRMD1 | 0.16 | inactive |
| RNF167 | -0.96 | inactive |
| RNF167 | -1.47 | inactive |
| RNF167 | -1.4 | inactive |
| RNF167 | -0.54 | inactive |
| CPNE5 | -2.12 | active |
| CPNE5 | -1.53 | active |
| CPNE5 | -1.97 | active |
| CPNE5 | -1.68 | active |
| RAB27B | -0.44 | inactive |
| RAB27B | 1.07 | inactive |
| RAB27B | -0.08 | inactive |
| RAB27B | 0.45 | inactive |
| KLHL12 | -0.12 | inactive |
| KLHL12 | -0.44 | inactive |
| KLHL12 | 0.13 | inactive |
| KLHL12 | -0.11 | inactive |
| NOP53 | -0.67 | inactive |
| NOP53 | 1.28 | inactive |
| NOP53 | 3.11 | active |
| NOP53 | 3.61 | active |
| BMP8B | -1.84 | active |
| BMP8B | 0.69 | inactive |
| BMP8B | 0.4 | inactive |
| BMP8B | -0.3 | inactive |
| EPN3 | 1.66 | inactive |
| EPN3 | 1.27 | inactive |
| EPN3 | 1.61 | inactive |
| EPN3 | 2.77 | inactive |
| GUK1 | -0.23 | inactive |
| GUK1 | 0.81 | inactive |
| GUK1 | 0.98 | inactive |
| GUK1 | 0.52 | inactive |
| PHOSPHO1 | -0.27 | inactive |
| PHOSPHO1 | 0.41 | inactive |
| PHOSPHO1 | -0.85 | inactive |
| PHOSPHO1 | 0.19 | inactive |
| EGR2 | -1.5 | inactive |
| EGR2 | -1.49 | inactive |
| EGR2 | -1.97 | active |
| EGR2 | -0.86 | inactive |
| TMEM126A | 0.86 | inactive |
| TMEM126A | 1.86 | inactive |
| TMEM126A | 0.05 | inactive |
| TMEM126A | 1.75 | inactive |
